Reference: PubChem BioAssay AID540276 (National Center for Advancing Translational Sciences (NCATS), 2011)
Out of some 300,000 compounds screened, about 5,400 (1.8%) were called active. The shares of active, inactive and inconclusive entries below differ from those in the screen. Calls follow the shape of the full dose curve; tested in HEK293 cells. Potencies of inconclusive entries are doubtful fits and often do not repeat.

Assay: qHTS for inhibitors of binding or entry into cells for Marburg Virus
Settings: Marburg virus pseudotyped entry inhibition, cell reporter; activity change, negative = inhibition: at 37.8 µM (top of the series) unless noted
% is scaled to controls: 0 for no effect and ±100 for the full control effect; potency is read from the fitted curve at half-maximal effect.

SMILES	Potency	activity change, negative = inhibition
N#Cc1ccc(OCC(O)CN2CCC(C(O)(c3ccccc3)c3ccccc3)CC2)cc1 (stereo not given)	active: 12.6 µM	
COC(=O)[C@H](COC(C)(C)C)NC(=O)O[C@@H]1C(=O)c2cc(OC)ccc2O[C@H]1c1cccc(OC)c1	inconclusive: 5.31 µM [activator, single point]	
CCc1ccc(OCC(=O)N/N=C/c2cc([N+](=O)[O-])ccc2N2CCCCCC2)cc1		inactive: 13.4%
Fc1cccc(-c2cc3nc4c(c(N5CCOCC5)n3n2)CCCC4)c1	inconclusive: 5.17 µM [inhibitor, partial curve, poor fit]	
O=c1[nH]c(=O)n([C@H]2C[C@H](O)[C@@H](CO)O2)cc1C(F)(F)F	inconclusive: 2.59 µM [inhibitor, full curve, poor fit]	
Cc1cccc(-n2c(=O)[nH]c3c(C(N)=O)nc(CC(C)C)nc32)c1	inconclusive: 7.94 µM [inhibitor, partial curve, poor fit]	
Cc1ccc(OCCn2c(=O)oc3ccc(C)cc32)cc1		inactive: -14.1% [at 46.1 µM]
Cc1cc(C)c2nc(N3CCN(C(=O)c4ccco4)CC3)sc2c1	inconclusive: 5.62 µM [activator, single point]	
Cc1nc2nc(NC(=O)C(C)(C)C)[nH]n2c(=O)c1Cc1ccccc1		inactive: 8.81% [at 46.1 µM]
CCn1c(COc2ccc(C)cc2)nc2ccccc21	inconclusive: 10 µM [inhibitor, partial curve, poor fit]	
COC(=O)CCNC(=O)c1ccc2nc(Cc3ccc(OC)cc3)oc2c1		inactive: 4.64%
O=C1C=CC(=Nc2ccc3c(c2)Cc2ccccc2-3)O1	inconclusive: 14.1 µM [activator, single point]	
COc1cccc(CN(CC(=O)NC2CCCC2)C(=O)CCC(=O)Nc2cc(C)on2)c1		inactive: -11.4%
CS(=O)(=O)N(CC(=O)NC1CC2CCC1C2)c1cccc(C(F)(F)F)c1 (stereo not given)		inactive: -16.5%
COCCn1c(SCc2ccc(C(=O)OC)o2)nc2ccccc2c1=O		inactive: -8.69%
C=CCN(CC=C)CCCOc1ccc(Br)cc1Cl	inconclusive: 35.5 µM [inhibitor, single point]	
Cc1ccccc1OCCN1C(=O)C(=O)c2cccc(C)c21	inconclusive: 35.5 µM [inhibitor, single point]	
COCC(C)n1c(C)cc(C(=O)CN2C(=O)NC3(CCCCC3C)C2=O)c1C (stereo not given)	inconclusive: 14.1 µM [activator, single point]	
COc1ccc(-n2c(=O)c3ccccc3n(CC(=O)OCc3ccccc3)c2=O)cc1OC		inactive: 4.49% [at 46.1 µM]
CC(CC(=O)O)CC(=O)Nc1ccccc1C(=O)O (stereo not given)	inconclusive: 0.146 µM [activator, full curve, poor fit]	

Part of the list above in order of heavy-atom count, low to high.
SMILES	Potency	activity change, negative = inhibition
O=C1C=CC(=Nc2ccc3c(c2)Cc2ccccc2-3)O1	inconclusive: 14.1 µM [activator, single point]	
Cc1ccccc1OCCN1C(=O)C(=O)c2cccc(C)c21	inconclusive: 35.5 µM [inhibitor, single point]	
CS(=O)(=O)N(CC(=O)NC1CC2CCC1C2)c1cccc(C(F)(F)F)c1 (stereo not given)		inactive: -16.5%
